These are yes or no findings as the source states them, for the method shown. In cells and extracts the contact can be indirect. Some binding calls cover weakened binding; strength is not graded here. Sequences can lack the tags named with a protein.

The target of test [1] is T1, Flag-tagged NDP52 (CALCOCO2) (not stated (human or mouse cDNA cloned)) (UniProt Q13137).
T1 sequence: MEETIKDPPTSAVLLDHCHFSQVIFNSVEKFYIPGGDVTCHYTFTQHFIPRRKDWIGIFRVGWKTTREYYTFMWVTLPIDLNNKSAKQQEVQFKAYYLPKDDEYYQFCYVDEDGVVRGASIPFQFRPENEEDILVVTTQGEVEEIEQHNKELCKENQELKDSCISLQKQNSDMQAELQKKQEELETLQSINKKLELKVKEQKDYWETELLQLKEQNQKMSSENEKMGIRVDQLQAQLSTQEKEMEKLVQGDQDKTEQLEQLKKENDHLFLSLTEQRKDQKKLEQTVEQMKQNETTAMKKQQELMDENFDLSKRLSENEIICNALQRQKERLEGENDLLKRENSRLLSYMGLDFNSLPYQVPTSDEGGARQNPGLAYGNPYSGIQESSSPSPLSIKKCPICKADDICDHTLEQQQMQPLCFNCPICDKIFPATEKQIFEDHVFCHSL
Briefly: co-IP; 293T cells co-transfected with HA-tagged SHIP1 constructs and Flag-tagged partners; IP using anti-Flag beads and immunoblot with anti-HA (Fig. 3C, 5A; also Fig. 3H, 3I, S3A, S5A); Flag-IRF3 with HA-SHIP1 also in NDP52 KO 293T cells, where the interaction was reduced (Fig. 5J).

Test [2] has as its target T2, Flag-tagged neighbor of BRCA1 (NBR1) (UniProt Q14596).
T2 sequence: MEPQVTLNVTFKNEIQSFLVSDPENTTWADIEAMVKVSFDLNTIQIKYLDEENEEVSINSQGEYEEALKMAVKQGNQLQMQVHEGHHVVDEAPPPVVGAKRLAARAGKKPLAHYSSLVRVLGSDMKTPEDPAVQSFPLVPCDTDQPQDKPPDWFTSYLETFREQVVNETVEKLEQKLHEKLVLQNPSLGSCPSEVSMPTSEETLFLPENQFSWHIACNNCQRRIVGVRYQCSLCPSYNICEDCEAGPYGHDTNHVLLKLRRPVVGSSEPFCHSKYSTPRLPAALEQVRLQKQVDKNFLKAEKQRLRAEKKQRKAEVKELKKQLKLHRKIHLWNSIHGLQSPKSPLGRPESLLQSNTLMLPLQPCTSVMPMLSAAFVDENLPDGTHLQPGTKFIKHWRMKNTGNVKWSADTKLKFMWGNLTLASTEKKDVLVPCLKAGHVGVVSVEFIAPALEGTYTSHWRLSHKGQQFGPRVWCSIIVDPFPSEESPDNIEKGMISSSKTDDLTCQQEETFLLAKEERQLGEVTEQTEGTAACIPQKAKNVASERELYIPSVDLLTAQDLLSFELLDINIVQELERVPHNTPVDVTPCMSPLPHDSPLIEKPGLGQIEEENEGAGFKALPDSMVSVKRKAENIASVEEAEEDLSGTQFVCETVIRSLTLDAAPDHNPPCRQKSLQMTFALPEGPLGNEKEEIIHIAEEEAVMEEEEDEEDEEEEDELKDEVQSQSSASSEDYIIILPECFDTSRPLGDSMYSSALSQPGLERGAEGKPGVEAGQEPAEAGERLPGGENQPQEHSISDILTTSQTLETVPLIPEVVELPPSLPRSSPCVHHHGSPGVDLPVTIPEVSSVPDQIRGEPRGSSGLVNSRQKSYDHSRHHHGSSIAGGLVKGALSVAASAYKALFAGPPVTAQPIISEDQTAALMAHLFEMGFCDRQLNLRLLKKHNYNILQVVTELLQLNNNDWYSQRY
The description is as above.

B1: HA-tagged SHIP1 (Src homology 2 containing inositol phosphatase 1), full length (protein, UniProt Q92835 1-1189)
chain: MVPCWNHGNITRSKAEELLSRTGKDGSFLVRASESISRAYALCVLYRNCVYTYRILPNEDDKFTVQASEGVSMRFFTKLDQLIEFYKKENMGLVTHLQYPVPLEEEDTGDDPEEDTVESVVSPPELPPRNIPLTASSCEAKEVPFSNENPRATETSRPSLSETLFQRLQSMDTSGLPEEHLKAIQDYLSTQLAQDSEFVKTGSSSLPHLKKLTTLLCKELYGEVIRTLPSLESLQRLFDQQLSPGLRPRPQVPGEANPINMVSKLSQLTSLLSSIEDKVKALLHEGPESPHRPSLIPPVTFEVKAESLGIPQKMQLKVDVESGKLIIKKSKDGSEDKFYSHKKILQLIKSQKFLNKLVILVETEKEKILRKEYVFADSKKREGFCQLLQQMKNKHSEQPEPDMITIFIGTWNMGNAPPPKKITSWFLSKGQGKTRDDSADYIPHDIYVIGTQEDPLSEKEWLEILKHSLQEITSVTFKTVAIHTLWNIRIVVLAKPEHENRISHICTDNVKTGIANTLGNKGAVGVSFMFNGTSLGFVNSHLTSGSEKKLRRNQNYMNILRFLALGDKKLSPFNITHRFTHLFWFGDLNYRVDLPTWEAETIIQKIKQQQYADLLSHDQLLTERREQKVFLHFEEEEITFAPTYRFERLTRDKYAYTKQKATGMKYNLPSWCDRVLWKSYPLVHVVCQSYGSTSDIMTSDHSPVFATFEAGVTSQFVSKNGPGTVDSQGQIEFLRCYATLKTKSQTKFYLEFHSSCLESFVKSQEGENEEGSEGELVVKFGETLPKLKPIISDPEYLLDQHILISIKSSDSDESYGEGCIALRLEATETQLPIYTPLTHHGELTGHFQGEIKLQTSQGKTREKLYDFVKTERDESSGPKTLKSLTSHDPMKQWEVTSRAPPCSGSSITEIINPNYMGVGPFGPPMPLHVKQTLSPDQQPTAWSYDQPPKDSPLGPCRGESPPTPPGQPPISPKKFLPSTANRGLPPRTQESRPSDLGKNAGDTLPQEDLPLTKPEMFENPLYGSLSSFPKPAPRKDQESPKMPRKEPPPCPEPGILSPSIVLTKAQEADRGEGPGKQVPAPRLRSFTCSSSAEGRAAGGDKSQGKPKTPVSSQAPVPAKRPIKPSRSEINQQTPPTPTPRPPLPVKSPAVLHLQHSKGRDYRDNTELPHHGKHRPEEGPPGPLGRTAMQ
Regarding B1, the figures for the binding result in test [1] and in test [2] were “binds” and “no binding”, respectively.

These data come from PMC10470592.
